## Percent effect of library compounds

From ChEMBL document CHEMBL3988442, “University of Dundee, Small-Polar-MMV Screening Library” (2021).

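Assay of Toxoplasma gondii numbers, read through their beta-galactosidase reporter with a colour substrate. Tested at 50 µM. Higher reads as fewer parasites (inferred from which compounds were picked for retests). About 18,000 compounds were tested under these conditions; 0.94% (about 170) showed 50% or more at least once.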

Each number is a percent effect as filed. How 0% and 100% were set is not recorded. Most values in the screen are low, and negative values occur. This is an unselected part of the compounds tested.

Compound: CC(C)CC(NC(=O)c1ccc(Cl)cc1)C(N)=O (stereo unspecified)
effect: 23.98%

Compound: COCCN(CCOC)Cc1cn2ccccc2n1
effect: -2.553%

Compound: CS(=O)(=O)N1CCCC(C(=O)NC2CC2)C1 (stereo unspecified)
effect: 1.929%

Compound: NC(=O)CN1CCOC(c2ccc(Cl)s2)C1 (stereo unspecified)
effect: -1.137%

Compound: CN(C)c1nccc(C2CNCCO2)n1 (stereo unspecified)
effect: 24.32%

Compound: COCCCNCc1cccc(OC)c1OC
effect: -11.02%

Compound: COc1cc(C(=O)NCC2CCC2)cc2c1OCCO2
effect: -6.949%

Compound: Cc1ccc(-n2nnnc2NCC2CCCO2)cc1 (stereo unspecified)
effect: 5.641%

Compound: OCC1CSc2ccccc21 (stereo unspecified)
effect: 0.3152%

Compound: CCCc1cc(CN(C)C(=O)c2nc(C)c[nH]2)n[nH]1
effect: -1.477%

Compound: Cc1ccc(C(CN)N2CCOCC2)s1 (stereo unspecified)
effect: -6.994%

Compound: CC(C)c1cccc(NC(=O)CN2CCN(C)CC2)c1
effect: 4.73%

Compound: CNC(=O)c1nn(C)cc1NC(=O)c1cc(C)c(C)s1
effect: -17.48%

Compound: COCCN(Cc1ccccn1)C(=O)CC1CCNC1 (stereo unspecified)
effect: -4.42%

Compound: CC(Nc1ccn(CC(F)(F)F)n1)C(=O)N1CCCC1 (stereo unspecified)
effect: -0.04181%

Compound: COCCN(CCOC)C1CCNCC1
effect: -3.387%

Compound: CCc1nc(CSc2ncnn2C)no1
effect: -0.3435%

Compound: CNCC(=O)NC(Cc1cccc(OC)c1)C1CC1 (stereo unspecified)
effect: -8.372%

Compound: O=C(Cn1ccnc1)Nc1ccccc1F
effect: -0.3361%

Compound: Cc1cc(NC(=O)C(C)N(C)Cc2cc(C)on2)on1 (stereo unspecified)
effect: 5.589%

Compound: COc1ccc(CN2CCCNCC2=O)cc1
effect: -8.966%

Compound: Cc1cc(N2C[C@@H](CO)[C@H](CO)C2)n2nc(C)cc2n1
effect: 2.553%

Compound: CSc1cc(NC(=O)CCc2cncc(F)c2)ccn1
effect: -0.5063%

Compound: Cc1ccc(CNCc2cscn2)c(N2CCCC2)n1
effect: -1.717%

Compound: CN(C)C1CCN(CC(=O)NCCn2cnnn2)C1 (stereo unspecified)
effect: 1.833%

Compound: O=C1NCCN(C(=O)c2ccc(Br)o2)C1c1cccs1 (stereo unspecified)
effect: 99.65%

Compound: NC1CN(c2ccncn2)C1
effect: -2.064%

Compound: N[C@@H]1CCC(=O)N[C@H]1c1ccccc1
effect: -4.377%